Measurements taken from the supplement of paper PMC6411743.
± gives the standard deviation of the averaged measurements. The list shows a part of the results.

By UniProt entry, the sequences of proteins in these tests, tags left out. Where a name states a change or a piece, a line headed by the entry shows the natural chain unless it says otherwise.
UniProt Q8NFH5: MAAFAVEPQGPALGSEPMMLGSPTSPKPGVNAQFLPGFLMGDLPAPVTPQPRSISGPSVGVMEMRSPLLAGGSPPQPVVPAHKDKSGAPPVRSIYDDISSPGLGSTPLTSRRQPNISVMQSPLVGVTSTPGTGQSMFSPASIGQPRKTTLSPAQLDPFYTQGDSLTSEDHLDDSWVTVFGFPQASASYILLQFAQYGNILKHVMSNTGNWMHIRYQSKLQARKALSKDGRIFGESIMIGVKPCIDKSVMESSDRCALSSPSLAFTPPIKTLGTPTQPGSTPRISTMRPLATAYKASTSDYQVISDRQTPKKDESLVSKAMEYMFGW
UniProt Q8N6T7, whole entry: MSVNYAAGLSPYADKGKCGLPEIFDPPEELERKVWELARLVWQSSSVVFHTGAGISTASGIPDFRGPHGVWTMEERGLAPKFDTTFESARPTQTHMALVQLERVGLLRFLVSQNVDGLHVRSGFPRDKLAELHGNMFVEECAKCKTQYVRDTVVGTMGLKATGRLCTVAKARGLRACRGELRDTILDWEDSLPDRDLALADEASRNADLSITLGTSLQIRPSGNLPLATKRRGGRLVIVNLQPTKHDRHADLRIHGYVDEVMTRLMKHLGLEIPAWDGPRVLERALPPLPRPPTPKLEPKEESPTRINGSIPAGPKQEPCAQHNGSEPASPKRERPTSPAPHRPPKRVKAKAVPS
UniProt Q86XL3: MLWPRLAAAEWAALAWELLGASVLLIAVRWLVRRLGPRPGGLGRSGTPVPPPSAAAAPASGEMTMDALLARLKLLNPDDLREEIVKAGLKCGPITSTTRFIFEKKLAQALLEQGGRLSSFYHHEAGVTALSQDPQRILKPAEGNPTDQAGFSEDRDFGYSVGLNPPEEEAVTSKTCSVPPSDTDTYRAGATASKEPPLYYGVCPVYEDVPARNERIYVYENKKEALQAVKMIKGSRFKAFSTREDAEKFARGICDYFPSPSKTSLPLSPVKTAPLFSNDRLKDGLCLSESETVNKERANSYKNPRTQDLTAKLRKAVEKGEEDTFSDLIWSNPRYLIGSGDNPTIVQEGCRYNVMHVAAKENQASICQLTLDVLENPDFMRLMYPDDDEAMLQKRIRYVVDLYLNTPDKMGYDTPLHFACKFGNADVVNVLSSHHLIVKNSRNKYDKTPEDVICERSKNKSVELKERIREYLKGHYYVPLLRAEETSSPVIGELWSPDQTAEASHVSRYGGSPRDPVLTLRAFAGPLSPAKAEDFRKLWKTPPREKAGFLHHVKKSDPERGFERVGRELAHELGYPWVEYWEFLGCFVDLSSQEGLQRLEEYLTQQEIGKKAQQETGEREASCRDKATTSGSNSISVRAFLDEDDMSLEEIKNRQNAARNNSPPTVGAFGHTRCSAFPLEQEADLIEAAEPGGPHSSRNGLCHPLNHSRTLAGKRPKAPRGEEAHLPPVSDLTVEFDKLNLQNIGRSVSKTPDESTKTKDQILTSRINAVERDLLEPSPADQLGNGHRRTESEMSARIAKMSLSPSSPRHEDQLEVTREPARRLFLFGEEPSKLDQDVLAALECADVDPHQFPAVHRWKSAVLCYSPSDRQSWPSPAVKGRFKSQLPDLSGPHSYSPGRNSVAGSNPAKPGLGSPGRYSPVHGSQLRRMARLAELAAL
UniProt Q8TBF4: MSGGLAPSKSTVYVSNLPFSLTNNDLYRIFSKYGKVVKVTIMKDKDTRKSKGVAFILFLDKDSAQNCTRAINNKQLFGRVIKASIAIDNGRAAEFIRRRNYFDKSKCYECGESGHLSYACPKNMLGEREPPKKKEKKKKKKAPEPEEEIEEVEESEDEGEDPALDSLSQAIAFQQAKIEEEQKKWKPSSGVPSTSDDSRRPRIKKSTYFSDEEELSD
UniProt Q8NBF6: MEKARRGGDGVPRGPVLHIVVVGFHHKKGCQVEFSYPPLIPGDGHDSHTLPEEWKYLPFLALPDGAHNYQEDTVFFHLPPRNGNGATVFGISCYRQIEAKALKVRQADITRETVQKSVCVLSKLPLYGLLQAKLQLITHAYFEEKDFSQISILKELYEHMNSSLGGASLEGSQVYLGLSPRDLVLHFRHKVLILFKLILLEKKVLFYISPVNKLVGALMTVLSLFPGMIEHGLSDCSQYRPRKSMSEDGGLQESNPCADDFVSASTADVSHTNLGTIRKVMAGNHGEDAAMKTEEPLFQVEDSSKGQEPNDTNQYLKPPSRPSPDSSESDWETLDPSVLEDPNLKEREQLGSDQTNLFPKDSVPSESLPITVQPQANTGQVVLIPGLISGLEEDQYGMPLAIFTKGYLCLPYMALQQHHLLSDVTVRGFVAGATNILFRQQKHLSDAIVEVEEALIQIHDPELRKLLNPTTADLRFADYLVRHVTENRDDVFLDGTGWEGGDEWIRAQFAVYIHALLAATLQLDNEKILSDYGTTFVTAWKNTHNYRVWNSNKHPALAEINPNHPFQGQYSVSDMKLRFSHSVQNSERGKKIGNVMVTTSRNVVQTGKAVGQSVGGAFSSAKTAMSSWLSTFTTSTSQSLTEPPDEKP
UniProt Q8N3D4: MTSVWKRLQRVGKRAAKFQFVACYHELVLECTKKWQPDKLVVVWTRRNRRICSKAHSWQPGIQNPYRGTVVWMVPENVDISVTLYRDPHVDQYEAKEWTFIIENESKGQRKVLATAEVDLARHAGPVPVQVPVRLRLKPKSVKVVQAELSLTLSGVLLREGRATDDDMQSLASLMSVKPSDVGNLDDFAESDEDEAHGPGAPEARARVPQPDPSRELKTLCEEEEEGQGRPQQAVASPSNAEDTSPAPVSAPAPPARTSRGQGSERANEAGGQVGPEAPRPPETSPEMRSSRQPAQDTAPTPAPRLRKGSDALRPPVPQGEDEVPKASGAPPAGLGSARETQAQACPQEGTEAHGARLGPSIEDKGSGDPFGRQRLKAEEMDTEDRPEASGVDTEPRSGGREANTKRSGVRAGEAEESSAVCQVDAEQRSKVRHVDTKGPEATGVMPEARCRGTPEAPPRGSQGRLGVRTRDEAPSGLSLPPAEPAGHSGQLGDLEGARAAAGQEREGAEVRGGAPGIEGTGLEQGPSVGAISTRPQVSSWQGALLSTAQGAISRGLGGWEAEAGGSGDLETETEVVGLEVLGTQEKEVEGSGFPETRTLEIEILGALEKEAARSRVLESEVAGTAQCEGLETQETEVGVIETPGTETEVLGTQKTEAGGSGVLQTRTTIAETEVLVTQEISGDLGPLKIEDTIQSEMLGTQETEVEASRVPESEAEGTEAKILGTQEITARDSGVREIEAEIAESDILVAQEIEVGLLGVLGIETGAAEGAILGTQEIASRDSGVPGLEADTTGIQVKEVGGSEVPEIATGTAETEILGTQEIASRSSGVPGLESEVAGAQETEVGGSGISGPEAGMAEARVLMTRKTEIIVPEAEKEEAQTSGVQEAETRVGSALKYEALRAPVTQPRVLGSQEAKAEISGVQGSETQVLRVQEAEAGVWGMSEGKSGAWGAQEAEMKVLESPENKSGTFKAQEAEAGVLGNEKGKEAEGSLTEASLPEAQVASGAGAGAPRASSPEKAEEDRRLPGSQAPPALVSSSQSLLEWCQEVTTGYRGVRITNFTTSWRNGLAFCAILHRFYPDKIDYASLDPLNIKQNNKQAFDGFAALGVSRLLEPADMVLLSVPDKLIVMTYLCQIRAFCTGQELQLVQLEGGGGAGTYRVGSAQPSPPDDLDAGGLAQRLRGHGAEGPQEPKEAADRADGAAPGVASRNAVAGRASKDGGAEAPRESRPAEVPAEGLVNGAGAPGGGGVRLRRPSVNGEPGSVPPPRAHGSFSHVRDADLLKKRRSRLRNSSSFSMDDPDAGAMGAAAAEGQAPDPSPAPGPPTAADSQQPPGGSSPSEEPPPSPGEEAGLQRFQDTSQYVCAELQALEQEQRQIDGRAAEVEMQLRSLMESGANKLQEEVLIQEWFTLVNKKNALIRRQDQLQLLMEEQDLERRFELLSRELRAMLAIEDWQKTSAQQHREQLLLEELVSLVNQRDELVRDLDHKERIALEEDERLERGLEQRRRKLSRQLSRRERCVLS
UniProt Q8NB46: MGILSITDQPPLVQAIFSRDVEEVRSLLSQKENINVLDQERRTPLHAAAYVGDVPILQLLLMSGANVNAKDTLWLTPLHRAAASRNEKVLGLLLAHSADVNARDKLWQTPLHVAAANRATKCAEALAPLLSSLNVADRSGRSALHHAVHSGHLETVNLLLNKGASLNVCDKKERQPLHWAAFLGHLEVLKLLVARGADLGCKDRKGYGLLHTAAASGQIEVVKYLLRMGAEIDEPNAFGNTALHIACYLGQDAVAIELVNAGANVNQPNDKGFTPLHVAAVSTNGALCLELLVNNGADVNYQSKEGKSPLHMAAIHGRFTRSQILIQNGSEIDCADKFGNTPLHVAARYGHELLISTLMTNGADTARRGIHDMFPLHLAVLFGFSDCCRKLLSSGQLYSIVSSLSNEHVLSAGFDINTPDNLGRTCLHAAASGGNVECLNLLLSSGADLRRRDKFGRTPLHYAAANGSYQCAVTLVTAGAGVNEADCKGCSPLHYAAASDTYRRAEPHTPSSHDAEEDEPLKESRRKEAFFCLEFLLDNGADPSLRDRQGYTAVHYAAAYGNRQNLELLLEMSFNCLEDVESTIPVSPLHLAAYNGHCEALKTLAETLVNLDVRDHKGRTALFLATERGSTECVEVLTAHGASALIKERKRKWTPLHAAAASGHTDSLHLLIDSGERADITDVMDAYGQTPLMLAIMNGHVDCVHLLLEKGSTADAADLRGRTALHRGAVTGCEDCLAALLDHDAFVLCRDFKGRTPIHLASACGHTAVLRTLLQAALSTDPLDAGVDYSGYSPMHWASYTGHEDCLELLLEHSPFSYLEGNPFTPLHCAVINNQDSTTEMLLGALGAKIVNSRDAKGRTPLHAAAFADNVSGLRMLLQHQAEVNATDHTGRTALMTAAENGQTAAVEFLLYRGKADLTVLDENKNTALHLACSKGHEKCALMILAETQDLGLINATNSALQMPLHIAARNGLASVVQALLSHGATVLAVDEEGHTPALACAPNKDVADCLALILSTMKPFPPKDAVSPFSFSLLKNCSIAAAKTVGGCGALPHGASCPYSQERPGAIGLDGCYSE
UniProt Q8TF68: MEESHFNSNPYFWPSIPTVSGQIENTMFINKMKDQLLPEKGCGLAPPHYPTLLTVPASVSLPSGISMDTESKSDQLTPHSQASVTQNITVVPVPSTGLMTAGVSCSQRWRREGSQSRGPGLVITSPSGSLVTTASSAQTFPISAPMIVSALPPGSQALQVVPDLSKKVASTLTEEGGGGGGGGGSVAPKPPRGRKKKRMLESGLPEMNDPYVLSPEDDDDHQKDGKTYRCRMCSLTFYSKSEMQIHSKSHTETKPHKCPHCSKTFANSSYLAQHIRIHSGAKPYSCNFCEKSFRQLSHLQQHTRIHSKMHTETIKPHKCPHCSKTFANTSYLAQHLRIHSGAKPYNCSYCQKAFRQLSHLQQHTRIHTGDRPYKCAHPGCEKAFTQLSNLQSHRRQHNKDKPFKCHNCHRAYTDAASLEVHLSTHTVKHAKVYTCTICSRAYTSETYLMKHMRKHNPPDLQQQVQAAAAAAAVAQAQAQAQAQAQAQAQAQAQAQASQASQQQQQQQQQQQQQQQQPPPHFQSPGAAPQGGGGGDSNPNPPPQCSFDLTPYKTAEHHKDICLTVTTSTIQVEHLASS
UniProt Q8TDD1, whole entry: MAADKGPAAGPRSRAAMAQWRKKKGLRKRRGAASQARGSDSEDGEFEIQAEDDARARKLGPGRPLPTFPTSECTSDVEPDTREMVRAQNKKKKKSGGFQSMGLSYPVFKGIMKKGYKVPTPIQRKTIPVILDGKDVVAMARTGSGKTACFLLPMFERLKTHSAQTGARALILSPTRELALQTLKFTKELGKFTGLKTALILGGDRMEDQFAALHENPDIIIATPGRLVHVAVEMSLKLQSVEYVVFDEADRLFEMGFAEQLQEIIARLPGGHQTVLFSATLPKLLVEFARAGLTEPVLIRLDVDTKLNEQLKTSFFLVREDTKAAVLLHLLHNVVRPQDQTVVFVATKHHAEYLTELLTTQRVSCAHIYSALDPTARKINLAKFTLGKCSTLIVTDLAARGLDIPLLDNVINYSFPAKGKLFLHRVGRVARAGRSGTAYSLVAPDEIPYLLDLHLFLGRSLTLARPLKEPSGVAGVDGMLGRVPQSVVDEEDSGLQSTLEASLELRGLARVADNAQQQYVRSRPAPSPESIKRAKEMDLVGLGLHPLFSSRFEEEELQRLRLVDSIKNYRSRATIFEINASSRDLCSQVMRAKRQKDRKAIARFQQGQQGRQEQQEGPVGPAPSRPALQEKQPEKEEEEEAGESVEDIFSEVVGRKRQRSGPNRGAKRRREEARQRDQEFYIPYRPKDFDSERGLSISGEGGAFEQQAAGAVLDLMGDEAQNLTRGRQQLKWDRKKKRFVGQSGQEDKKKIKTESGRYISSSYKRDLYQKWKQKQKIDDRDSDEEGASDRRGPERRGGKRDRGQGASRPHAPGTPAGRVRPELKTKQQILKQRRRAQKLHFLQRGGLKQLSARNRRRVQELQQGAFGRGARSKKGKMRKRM

Compound: Nc1nc2c(ncn2[C@@H]2O[C@H](COP(=O)(O)OP(=O)(O)OP(=O)(O)O)[C@@H](O)[C@H]2O)c(=O)[nH]1 [guanosine triphosphate]
Experiment: NP40-soluble protein abundance relative to vehicle (solubility fold change) (ratio); higher = more soluble protein in presence of GTP
How it was run: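 Across three independent experiments, values are fold changes against the detergent-processed vehicle for each replicate, based on vsn-normalised intensities. The samples were Jurkat crude lysate treated with eight concentrations (0.1 to 10 mM) for 10 min at room temperature and then 3 min at 37 °C. Lysate was solubilised with 0.8% NP40 and benzonase, ultracentrifuged, and the supernatant analysed by TMT-labelled LC-MS/MS.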

| Target | NP40-soluble protein abundance (concentration: 0.1mM) | NP40-soluble protein abundance (concentration: 0.5mM) | NP40-soluble protein abundance (concentration: 1mM) | NP40-soluble protein abundance (concentration: 2mM) | NP40-soluble protein abundance (concentration: 4mM) | NP40-soluble protein abundance (concentration: 6mM) | NP40-soluble protein abundance (concentration: 8mM) | NP40-soluble protein abundance (concentration: 10mM) |
| --- | --- | --- | --- | --- | --- | --- | --- | --- |
| UniProt Q8NFH5 and related entries | 0.99 ± 0.078 | 0.941 ± 0.046 | 1.04 ± 0.081 | 1.05 ± 0.13 | 1.07 ± 0.12 | 1.16 ± 0.13 | 1.24 ± 0.069 | 1.42 ± 0.14 |
| UniProt Q8IZA0 and related entries | 0.987 ± 0.051 | 0.917 ± 0.087 | 1.05 ± 0.059 | 0.976 ± 0.08 | 0.991 ± 0.11 | 1.02 ± 0.096 | 1.02 ± 0.047 | 0.948 ± 0.05 |
| LYSMD2 (UniProt Q8IV50) | 1.01 ± 0.064 | 0.968 ± 0.051 | 0.935 ± 0.054 | 0.916 ± 0.039 | 0.896 ± 0.031 | 0.907 ± 0.055 | 0.894 ± 0.045 | 0.913 ± 0.024 |
| DCP1B (UniProt Q8IZD4) | 0.969 ± 0.036 | 0.92 ± 0.078 | 1.02 ± 0.032 | 0.959 ± 0.074 | 0.939 ± 0.067 | 0.993 ± 0.098 | 0.996 ± 0.048 | 1.02 ± 0.066 |
| TTC5 (UniProt Q8N0Z6) | 0.942 ± 0.096 | 0.991 ± 0.054 | 0.954 ± 0.084 | 0.949 ± 0.056 | 0.946 ± 0.047 | 0.979 ± 0.075 | 0.96 ± 0.049 | 0.979 ± 0.029 |
| UniProt Q8TD16 and related entries | 0.991 ± 0.02 | 0.94 ± 0.041 | 0.987 ± 0.029 | 0.954 ± 0.054 | 0.952 ± 0.049 | 0.938 ± 0.059 | 0.961 ± 0.055 | 0.967 ± 0.032 |
| UniProt Q8IVS2 | 1.06 ± 0.064 | 1.05 ± 0.034 | 1.01 ± 0.025 | 1.03 ± 0.039 | 1.01 ± 0.086 | 1.03 ± 0.067 | 1.01 ± 0.068 | 1 ± 0.077 |
| UniProt Q8N6T7 and related entries | 1.14 ± 0.076 | 1.07 ± 0.13 | 1.07 ± 0.06 | 1.11 ± 0.059 | 1.05 ± 0.078 | 1 ± 0.086 | 1.1 ± 0.086 | 1.12 ± 0.017 |
| ZNF740 (UniProt Q8NDX6) | 1.01 ± 0.092 | 1.07 ± 0.12 | 1.06 ± 0.12 | 1.15 ± 0.16 | 1.1 ± 0.17 | 1.16 ± 0.12 | 1.09 ± 0.16 | 1.16 ± 0.12 |
| UniProt Q86XL3 and related entries | 1.01 ± 0.031 | 1 ± 0.033 | 1 ± 0.029 | 0.987 ± 0.021 | 0.999 ± 0.017 | 0.97 ± 0.0097 | 1 ± 0.016 | 0.991 ± 0.019 |
| NEK7 (UniProt Q8TDX7) | 1.025 ± 0.0041 | 1 ± 0.066 | 0.965 ± 0.014 | 0.944 ± 0.0075 | 0.956 ± 0.021 | 0.945 ± 0.026 | 0.9061 ± 0.0028 | 0.891 ± 0.015 |
| ANKRD13A (UniProt Q8IZ07) | 1.07 ± 0.02 | 1.06 ± 0.01 | 0.968 ± 0.077 | 0.995 ± 0.013 | 0.9383 ± 0.0085 | 0.9728 ± 0.0033 | 0.969 ± 0.044 | 0.925 ± 0.014 |
| UniProt Q8N0Y2 and related entries | 1.19 ± 0.042 | 0.984 ± 0.037 | 1.14 ± 0.054 | 1.02 ± 0.052 | 0.995 ± 0.046 | 0.953 ± 0.065 | 1.02 ± 0.031 | 0.948 ± 0.048 |
| UniProt Q8TCT9 and related entries | 0.971 ± 0.029 | 0.9269 ± 0.0086 | 0.914 ± 0.017 | 0.919 ± 0.015 | 0.891 ± 0.011 | 0.874 ± 0.016 | 0.864 ± 0.018 | 0.878 ± 0.013 |
| UniProt Q8NFV4 and related entries | 1.07 ± 0.092 | 0.929 ± 0.13 | 0.996 ± 0.063 | 1.02 ± 0.039 | 1.01 ± 0.027 | 0.965 ± 0.02 | 0.955 ± 0.021 | 0.961 ± 0.014 |
| ZCRB1 (UniProt Q8TBF4) | 1.05 ± 0.033 | 1.03 ± 0.062 | 1.08 ± 0.044 | 1.1 ± 0.039 | 1.03 ± 0.04 | 1.07 ± 0.11 | 1.12 ± 0.043 | 1.16 ± 0.02 |

2 consecutive records from above, for reference:

| Target | NP40-soluble protein abundance (concentration: 0.1mM) | NP40-soluble protein abundance (concentration: 0.5mM) | NP40-soluble protein abundance (concentration: 1mM) | NP40-soluble protein abundance (concentration: 2mM) | NP40-soluble protein abundance (concentration: 4mM) | NP40-soluble protein abundance (concentration: 6mM) | NP40-soluble protein abundance (concentration: 8mM) | NP40-soluble protein abundance (concentration: 10mM) |
| --- | --- | --- | --- | --- | --- | --- | --- | --- |
| UniProt Q86XL3 and related entries | 1.01 ± 0.031 | 1 ± 0.033 | 1 ± 0.029 | 0.987 ± 0.021 | 0.999 ± 0.017 | 0.97 ± 0.0097 | 1 ± 0.016 | 0.991 ± 0.019 |
| NEK7 (UniProt Q8TDX7) | 1.025 ± 0.0041 | 1 ± 0.066 | 0.965 ± 0.014 | 0.944 ± 0.0075 | 0.956 ± 0.021 | 0.945 ± 0.026 | 0.9061 ± 0.0028 | 0.891 ± 0.015 |

(continued)

| Target | NP40-soluble protein abundance (concentration: 0.1mM) | NP40-soluble protein abundance (concentration: 0.5mM) | NP40-soluble protein abundance (concentration: 1mM) | NP40-soluble protein abundance (concentration: 2mM) | NP40-soluble protein abundance (concentration: 4mM) | NP40-soluble protein abundance (concentration: 6mM) | NP40-soluble protein abundance (concentration: 8mM) | NP40-soluble protein abundance (concentration: 10mM) |
| --- | --- | --- | --- | --- | --- | --- | --- | --- |
| AVL9 (UniProt Q8NBF6) | 0.933 ± 0.027 | 0.942 ± 0.026 | 0.908 ± 0.031 | 0.936 ± 0.018 | 0.912 ± 0.04 | 0.878 ± 0.013 | 0.916 ± 0.034 | 0.921 ± 0.021 |
| UniProt Q8N8R7 | 1.15 ± 0.13 | 1.1 ± 0.025 | 1.138 ± 0.011 | 1.02 ± 0.014 | 1.09 ± 0.026 | 1.07 ± 0.13 | 1.13 ± 0.038 | 1.1 ± 0.07 |
| UniProt Q8IX12 and related entries | 0.993 ± 0.042 | 0.985 ± 0.027 | 1.004 ± 0.0041 | 0.996 ± 0.03 | 1.08 ± 0.056 | 1.12 ± 0.06 | 1.17 ± 0.077 | 1.14 ± 0.059 |
| CXorf38 (UniProt Q8TB03) | 0.941 ± 0.071 | 0.897 ± 0.028 | 0.895 ± 0.021 | 0.858 ± 0.021 | 0.865 ± 0.035 | 0.833 ± 0.01 | 0.8 ± 0.079 | 0.813 ± 0.051 |
| UniProt Q86Y56 | 1.06 ± 0.022 | 1.04 ± 0.022 | 0.985 ± 0.055 | 0.978 ± 0.035 | 0.961 ± 0.078 | 0.959 ± 0.065 | 0.953 ± 0.072 | 0.921 ± 0.075 |
| EHBP1L1 (UniProt Q8N3D4) | 1.08 ± 0.084 | 1.06 ± 0.061 | 1.13 ± 0.15 | 1.07 ± 0.087 | 1.02 ± 0.14 | 1.04 ± 0.15 | 1.09 ± 0.099 | 1.09 ± 0.13 |
| UniProt Q8IXW5 and related entries | 1.04 ± 0.074 | 1.02 ± 0.033 | 1.07 ± 0.12 | 1.05 ± 0.053 | 1.02 ± 0.039 | 1.08 ± 0.089 | 1.11 ± 0.031 | 1.03 ± 0.026 |
| UniProt Q8TCA0 and related entries | 1.05 ± 0.014 | 0.943 ± 0.062 | 0.948 ± 0.061 | 0.98 ± 0.053 | 0.909 ± 0.059 | 0.893 ± 0.057 | 0.851 ± 0.11 | 0.881 ± 0.077 |
| UniProt Q86X53 and related entries | 0.957 ± 0.064 | 0.89 ± 0.066 | 0.98 ± 0.062 | 0.946 ± 0.1 | 1 ± 0.049 | 1 ± 0.12 | 1 ± 0.041 | 1 ± 0.081 |
| ANKRD52 (UniProt Q8NB46) | 0.946 ± 0.12 | 1.08 ± 0.045 | 1 ± 0.049 | 1.03 ± 0.048 | 1.102 ± 0.011 | 0.948 ± 0.088 | 1.07 ± 0.054 | 1.01 ± 0.14 |
| UniProt Q8TF68 and related entries | 0.963 ± 0.05 | 0.994 ± 0.025 | 0.949 ± 0.1 | 0.94 ± 0.056 | 0.911 ± 0.13 | 0.866 ± 0.099 | 0.913 ± 0.13 | 0.938 ± 0.08 |
| UniProt Q8N7H5 and related entries | 0.988 ± 0.052 | 1.02 ± 0.021 | 1.03 ± 0.038 | 1.02 ± 0.04 | 1.02 ± 0.037 | 1.03 ± 0.032 | 0.997 ± 0.081 | 0.902 ± 0.13 |
| RNF168 (UniProt Q8IYW5) | 0.969 ± 0.084 | 0.926 ± 0.065 | 1.02 ± 0.11 | 1.04 ± 0.17 | 1.03 ± 0.16 | 1.07 ± 0.11 | 1.14 ± 0.081 | 1.11 ± 0.12 |
| UniProt Q8N9N5 and related entries | 1.04 ± 0.012 | 1.01 ± 0.037 | 0.974 ± 0.025 | 0.968 ± 0.021 | 0.966 ± 0.057 | 0.97 ± 0.02 | 0.964 ± 0.022 | 0.952 ± 0.032 |
| UniProt Q8TDD1 and related entries | 1.03 ± 0.0051 | 1.03 ± 0.042 | 1.07 ± 0.04 | 1.13 ± 0.024 | 1.234 ± 0.0045 | 1.3 ± 0.035 | 1.35 ± 0.032 | 1.53 ± 0.033 |
| UniProt Q8TBZ6 | 1.01 ± 0.062 | 0.969 ± 0.066 | 1.02 ± 0.05 | 0.975 ± 0.067 | 0.999 ± 0.092 | 1.01 ± 0.099 | 1.1 ± 0.027 | 1.05 ± 0.078 |
